{"sequences": {"note": "Sequences of proteins named here, by UniProt entry; tags and fusion partners are left off.", "UniProt Q0JBA9, entry or part of it": "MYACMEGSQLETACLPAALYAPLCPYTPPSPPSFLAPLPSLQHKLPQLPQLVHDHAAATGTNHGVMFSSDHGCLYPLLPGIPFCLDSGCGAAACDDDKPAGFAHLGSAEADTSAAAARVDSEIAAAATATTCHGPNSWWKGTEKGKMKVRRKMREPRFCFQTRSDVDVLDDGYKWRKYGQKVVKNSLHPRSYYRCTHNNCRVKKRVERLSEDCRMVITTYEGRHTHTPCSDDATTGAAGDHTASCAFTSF"}, "source": "paper PMC7819943", "about": "“Rice protein-binding microarrays: a tool to detect cis-acting elements near promoter regions in rice”", "note": "This is one part of the list."}
{"biological_target": "OsWRKY34 (Oryza sativa, UniProt Q0JBA9 1-250)", "experiment": "protein-binding microarray (RPBM); PBS, 2% BSA, 51.3 ng/ul salmon testes DNA, 50 uM zinc acetate, 200 nM TF, 25 C, 1 h; high values mean tight binding", "conditions": "protein: recombinant; tags: N-terminal polyhistidine and DsRed monomer fusion (pET32a); label: CyDye5-dUTP incorporated in the synthesized complementary strand; 3' TTTTT single-stranded linker to array surface; dsDNA, one strand shown", "procedure,_shortened": "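The binding signal is fluorescence intensity per array feature (arbitrary units). Readings came from an Axon 4000B scanner after a washed, 2% BSA-blocked, double-stranded custom Agilent array had been incubated for 1 h at 25 °C with 200 nM protein and 50 µM zinc acetate. The protein was a Ni–NTA-purified transcription factor fused N-terminally to polyhistidine and DsRed, expressed in E. coli BL21-CodonPlus.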"}
{"sequence": "CAACCCAACTCGGTCGTCGTCGTCGTCTTCCTCTCGAATCCGGAGTCACCTAGTGCAG", "binding signal": "9900 fluorescence intensity (a.u.)"}
{"sequence": "TTGTGATCCTAGCCTGCAACATATGTAGTATTCCTATCCTCGGAGTCACCTAGTGCAG", "binding signal": "8940 fluorescence intensity (a.u.)"}
{"sequence": "CACTTCTCTCTCTCTCTCTCTCTCGTCTCGCAACAATTTTCGGAGTCACCTAGTGCAG", "binding signal": "11200 fluorescence intensity (a.u.)"}
{"sequence": "ATGTGCTCGTGTTTTACTTTTACAATCTTCATTCCAAAATCGGAGTCACCTAGTGCAG", "binding signal": "10300 fluorescence intensity (a.u.)"}
{"sequence": "GACGCGAACCGCCTCATTCTTCAATGCCCCAACCACATTTCGGAGTCACCTAGTGCAG", "binding signal": "8240 fluorescence intensity (a.u.)"}
{"sequence": "CTTCAGTCTATTCTTCTTCTTTTCTTCCTTATCACAAAAACGGAGTCACCTAGTGCAG", "binding signal": "8920 fluorescence intensity (a.u.)"}
{"sequence": "GATTTTTTCCGGCGGTAGGCGCCGCTCTATGTTGTTCGTCCGGAGTCACCTAGTGCAG", "binding signal": "8480 fluorescence intensity (a.u.)"}
{"sequence": "TGGGATCGAATAGCATTGGTTTATATTTTAGTGAGATCATCGGAGTCACCTAGTGCAG", "binding signal": "10300 fluorescence intensity (a.u.)"}
{"sequence": "TTGGTGGGTGGCGCGGTGGCCGGACCTGGGGTGGTGGGCGCGGAGTCACCTAGTGCAG", "binding signal": "15900 fluorescence intensity (a.u.)"}
{"sequence": "TAGCGTCTGTTTCAGCCGTTTGATTGTCTTGATTCTATAACGGAGTCACCTAGTGCAG", "binding signal": "8560 fluorescence intensity (a.u.)"}
{"sequence": "CGTCGCTGCTGCCGCGCGCCTCCGCTCCATTCCTGATTCCCGGAGTCACCTAGTGCAG", "binding signal": "9200 fluorescence intensity (a.u.)"}
{"sequence": "GCGTTTTCGGCGGGGAACGCGGGGAGGCGGGTGGGGTTGACGGAGTCACCTAGTGCAG", "binding signal": "21800 fluorescence intensity (a.u.)"}
{"sequence": "AACGGTTCATTTTTATTTTTGTTATTTTTTCTCAAAAAATCGGAGTCACCTAGTGCAG", "binding signal": "8380 fluorescence intensity (a.u.)"}
{"sequence": "TTTTTGTCTTGTTTAAGGGCGGGCGCAAGAGGGGCCGGGTCGGAGTCACCTAGTGCAG", "binding signal": "9980 fluorescence intensity (a.u.)"}
{"sequence": "TCTCTCTCTCGATCGAATCTCTTTCGAATTTTCCAAAACCCGGAGTCACCTAGTGCAG", "binding signal": "8560 fluorescence intensity (a.u.)"}
{"sequence": "TATTATTGGTCAAAAATAATATCTCGTTGACCGTGTCAAACGGAGTCACCTAGTGCAG", "binding signal": "10300 fluorescence intensity (a.u.)"}
{"sequence": "ATGTTGGATTGTGGGTGGAGTTAGAAAAAATCATCCCTGACGGAGTCACCTAGTGCAG", "binding signal": "8390 fluorescence intensity (a.u.)"}
{"sequence": "ACACTCGCTTTCTGAACCTTACAGAAATTTCGCTGGCCATCGGAGTCACCTAGTGCAG", "binding signal": "8230 fluorescence intensity (a.u.)"}
{"sequence": "GGGTTGCATTTTCCCCAAACTTCCGTGGGACTTCCTTCAACGGAGTCACCTAGTGCAG", "binding signal": "8290 fluorescence intensity (a.u.)"}
{"sequence": "CCTCTCTCTGTTGCGACCATTGTCTCCTCTCCTATCCCAACGGAGTCACCTAGTGCAG", "binding signal": "10500 fluorescence intensity (a.u.)"}
{"sequence": "CCCGCCGCCGCTCTGCTCCACTTCACCTGCCGCCGCGCGCCGGAGTCACCTAGTGCAG", "binding signal": "9330 fluorescence intensity (a.u.)"}
{"sequence": "TGCTCCTTTTCTTTTGTTTCTCTGATTGCTGTTAGTTGTTCGGAGTCACCTAGTGCAG", "binding signal": "10900 fluorescence intensity (a.u.)"}
{"sequence": "GAGGTTTTTAATCGAAGTTTATTTTCCAGTCGTCGTTTTTCGGAGTCACCTAGTGCAG", "binding signal": "9230 fluorescence intensity (a.u.)"}
{"sequence": "CTTTAGCGGATTTTTTTGGGGTGATTTGCGGTGACCTCCGCGGAGTCACCTAGTGCAG", "binding signal": "10600 fluorescence intensity (a.u.)"}
{"sequence": "GTACGCGCGCGAGCCGCCGTTCGCAACACTGCAGCTTCCACGGAGTCACCTAGTGCAG", "binding signal": "8160 fluorescence intensity (a.u.)"}
{"sequence": "GATGGCCTTGACCATGCAGAAACAGGCATGGTTTCCTTCGCGGAGTCACCTAGTGCAG", "binding signal": "64500 fluorescence intensity (a.u.)"}
{"sequence": "ACCTACACGGCGTGCGCAATAACTGACATTTTTCTATTATCGGAGTCACCTAGTGCAG", "binding signal": "8270 fluorescence intensity (a.u.)"}
{"sequence": "GAGGAAAATAACTATGGCTGTGTTCTAACTTGGGGTTGGGCGGAGTCACCTAGTGCAG", "binding signal": "8220 fluorescence intensity (a.u.)"}
{"sequence": "CCTTTTTTTCCGAACCCGACCGGGTCTCTACCAACCGTTCCGGAGTCACCTAGTGCAG", "binding signal": "9210 fluorescence intensity (a.u.)"}
{"sequence": "ATATCTGCTTCTACGTCGTCTACGAAGCCGCCGAGACGTCCGGAGTCACCTAGTGCAG", "binding signal": "9320 fluorescence intensity (a.u.)"}
{"sequence": "CTCTCCTCCTCCGTTCCTGACTCCACCACTCACATTCATTCGGAGTCACCTAGTGCAG", "binding signal": "13200 fluorescence intensity (a.u.)"}
{"sequence": "ACTGCCTTACCTGTTCATCTTCCAAACTGATTTGGTTTGTCGGAGTCACCTAGTGCAG", "binding signal": "9370 fluorescence intensity (a.u.)"}
{"sequence": "GGGTGTGTTTGGTTTGCTACCATGTCAAAATATTGGTATTCGGAGTCACCTAGTGCAG", "binding signal": "9570 fluorescence intensity (a.u.)"}
{"sequence": "ATATGTTAACACGGAAGCCTATTTTGTCTTTTTTTACGGTCGGAGTCACCTAGTGCAG", "binding signal": "9740 fluorescence intensity (a.u.)"}
{"sequence": "TCGCAACGGTCTCAACACTTTTCTCGCTTCCCGCCATTTTCGGAGTCACCTAGTGCAG", "binding signal": "13300 fluorescence intensity (a.u.)"}
{"sequence": "CCCACTGACACGTGTGTCCCACTTTTTTTTAGCTTTTTATCGGAGTCACCTAGTGCAG", "binding signal": "8250 fluorescence intensity (a.u.)"}
{"sequence": "TATTCTTGGGTTCTTAGTTCTTGCTGAACTGCATATGTCACGGAGTCACCTAGTGCAG", "binding signal": "9650 fluorescence intensity (a.u.)"}
{"sequence": "GTCCACGCTCTAGGAAATCCACCGCACCGCCTTCGCACCACGGAGTCACCTAGTGCAG", "binding signal": "8900 fluorescence intensity (a.u.)"}
{"sequence": "ACACCCCACTCCTCACCCTCACGCAAAGTTCCCACACAACCGGAGTCACCTAGTGCAG", "binding signal": "8250 fluorescence intensity (a.u.)"}
{"sequence": "TCCTCTCTCTCTCTCTCTCTCTCTCCTCCTTTGGAGTTGTCGGAGTCACCTAGTGCAG", "binding signal": "10500 fluorescence intensity (a.u.)"}
{"sequence": "GCGTTTATCATTCTGTTTGTTTTTATAACAAAGCTGCTATCGGAGTCACCTAGTGCAG", "binding signal": "9330 fluorescence intensity (a.u.)"}
{"sequence": "ATTCTCTTCTTCATCTAGACTTAAATTTATTGCATGATGTCGGAGTCACCTAGTGCAG", "binding signal": "8420 fluorescence intensity (a.u.)"}
{"sequence": "CTCTTCCTTTCCTTGCTTCAGCTTCTTCTACTTATTAATCCGGAGTCACCTAGTGCAG", "binding signal": "9180 fluorescence intensity (a.u.)"}
{"sequence": "GTTGGTAATGGTCACTCTATTCCGGTTGTTTGCCGTGGCACGGAGTCACCTAGTGCAG", "binding signal": "8040 fluorescence intensity (a.u.)"}
{"sequence": "GGTTGATTTGGTTCTTAGCCAGGTATTTTTGCAGGTGTCGCGGAGTCACCTAGTGCAG", "binding signal": "11100 fluorescence intensity (a.u.)"}
{"sequence": "CCTCAAAATTTCGAAAATTGCGCCCGTCTTCCTTCCCTTCCGGAGTCACCTAGTGCAG", "binding signal": "8450 fluorescence intensity (a.u.)"}
{"sequence": "GCTCGCGCTCCACCCAACGGCCCAGGAACCAGCCCACGCACGGAGTCACCTAGTGCAG", "binding signal": "9300 fluorescence intensity (a.u.)"}
{"sequence": "AATTTGGTTTATTTTTTGTTCCACCGAAAAATGTTTCACCCGGAGTCACCTAGTGCAG", "binding signal": "9170 fluorescence intensity (a.u.)"}
{"sequence": "AGTCCAAGCAGCCCACGAAGTACCCGGCATTTATTTTCCTCGGAGTCACCTAGTGCAG", "binding signal": "9300 fluorescence intensity (a.u.)"}
{"sequence": "GTCTAAAAGATCAGTTCAAGTCGTGTTACCATGTGTTTTGCGGAGTCACCTAGTGCAG", "binding signal": "9970 fluorescence intensity (a.u.)"}
{"sequence": "CTCCTCTTTTCCTCCTGGTCTTCGTCTTCCTCAAGCCATGCGGAGTCACCTAGTGCAG", "binding signal": "8050 fluorescence intensity (a.u.)"}
{"sequence": "CGTTGTCTTGTGCTCGCTTGCTTCCGTTTGACGCGGTAGCCGGAGTCACCTAGTGCAG", "binding signal": "8840 fluorescence intensity (a.u.)"}
{"sequence": "GTGGCTGTGATTGTGTGATTGTGTACCTGTTTGTAGTGAACGGAGTCACCTAGTGCAG", "binding signal": "12700 fluorescence intensity (a.u.)"}
{"sequence": "ATCAGTCAAAATTCCAAAAGTTGGTCTTGTCCTTCATGTCCGGAGTCACCTAGTGCAG", "binding signal": "8160 fluorescence intensity (a.u.)"}
